In PubChem BioAssay AID2685 (National Center for Advancing Translational Sciences (NCATS), 2010):
The list shows a part of the results. Shown are side measurements of this screen, not its main read-out; they come without a call. The list favours compounds with an active or inconclusive main result. Potencies come from curve fits of mixed quality, noted in brackets.

Experiment: qHTS Assay for Lipid Storage Modulators in Drosophila S3 Cells;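 as to cell number change: cells counted by Cell Tracker Red CMTPX staining in the red channel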
Settings: BODIPY lipid droplet fluorescence, 18-24 h; for cell number change: measured here: cell count max response, cells fed with added oleic acid
How it was run: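 Drosophila S3 cells got compounds at several concentrations plus oleic acid (400 uM solution). Laser-scanning cytometry with 488 nm excitation read lipid droplets at 500-530 nm and cells at 575-640 nm. Percent activity was relative to 20 uM Triacsin C.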

[1] = measured here: lipid fluorescence (Fed channel) AC50, cells fed with added oleic acid
[2] = measured here: cell number channel AC50, cells fed with added oleic acid

SMILES | cell number change [%] | AC50 [1] | AC50 [2]
O=C(NC1=NCCS1)c1cc(-c2ccc(F)cc2)nc2ccccc12 | 7.07 | 0.291 µM [rising, full curve, poor fit] | –
Cc1nc2ccc(S(=O)(=O)NCC(=O)N3CCCCC3)cc2s1 | -85.3 | – | 32.6 µM [falling, single point]
CCn1c(C)cc(/C=C2/SC(=S)N(CC(=O)O)C2=O)c1C | -2.6 | 0.00411 µM [falling, full curve, poor fit] | –
Cc1cc(OC2CCCCC2)nc(-c2ccccc2O)n1 | -3.34 | 2.31 µM [rising, single point] | –
CC(=O)c1c(C(C)=O)c(C)n(-c2ccc(O)cc2)c1C | -22.8 | – | 0.0731 µM [falling, full curve, poor fit]
CNC(=O)Nc1cccc(NC(=O)NC)n1 | -10.8 | – | 0.58 µM [falling, partial curve, poor fit]
Cc1cc(F)ccc1NC(=O)CCc1c(C)nn(-c2ccc(N3CCCCC3)nn2)c1C | -7.65 | – | –
Cc1nn(CCC#N)c2[nH]c(=O)cc(C(F)(F)F)c12 | 25.8 | 2.91 µM [falling, partial curve] | 0.231 µM [falling, full curve, poor fit]
CC1(C)OC(=O)C(=CNc2ccccc2)C(=O)O1 | 6.34 | 5.17 µM [rising, single point] | –
CCc1nnc(NC(=O)C(c2ccccc2)c2ccccc2)s1 | 5.13 | 0.00461 µM [rising, full curve, poor fit] | –
CCn1cc(NC(=O)CCl)c(C)n1 | 17.3 | 0.92 µM [falling, full curve] | –
CCCN1C2=NCCCN2c2ccccc21 | -8.77 | – | –
COc1cccc(C2Nc3cc(Cl)c(S(N)(=O)=O)cc3S(=O)(=O)N2)c1 (stereo not drawn) | -17 | 0.517 µM [falling, full curve] | –
COc1ccc(N(CC(=O)NC2CCCC2)C(=O)Cn2nnc(-c3ccc(OC)c(OC)c3)n2)cc1 | -3.01 | – | –
COc1ccccc1-c1cn(S(=O)(=O)c2ccc(C)cc2)nc1N | -16.8 | 29.1 µM [falling, single point] | –
COC(=O)C(=C/C(C)=C/c1cccnc1)C(=O)OC | 9.94 | – | –
O=C(c1ccccn1)c1ncc(C(F)(F)F)cc1Cl | -28 | 3.26 µM [falling, partial curve, poor fit] | –
CC(C)S(=O)(=O)c1csc(NC(=O)Nc2cccc([N+](=O)[O-])c2)c1Cl | -58.4 | 18.4 µM [falling, single point] | 20.6 µM [falling, single point]
O=C1NC[C@@H](Cc2cccc3ccccc23)N(CCCCC2CCCCC2)C1=O | -69.9 | 16.4 µM [falling, partial curve, poor fit] | 20.6 µM [falling, partial curve]
Cc1cc(C)c(NC(=O)COC(=O)Cc2cccs2)c(C)c1 | -19.7 | – | –

Retrieved one by one from the entries so far (two):
SMILES | cell number change [%] | AC50 [1] | AC50 [2]
O=C(NC1=NCCS1)c1cc(-c2ccc(F)cc2)nc2ccccc12 | 7.07 | 0.291 µM [rising, full curve, poor fit] | –
COC(=O)C(=C/C(C)=C/c1cccnc1)C(=O)OC | 9.94 | – | –

Going on with the list:

SMILES | cell number change [%] | AC50 [1] | AC50 [2]
COc1ccc(C(=O)NCCS(=O)(=O)NC(C)c2ccccc2)cc1 (stereo not drawn) | -14.3 | 2.31 µM [falling, partial curve] | –
Cc1cc(NC(=O)C2CC(c3ccc(F)cc3)=NO2)n(-c2ccccc2)n1 (stereo not drawn) | 9.71 | – | –
COc1cccc(S(=O)(=O)NCc2ccc(C(=O)Nc3cccc(Cl)c3)cc2)c1 | 6.47 | – | –
CC(=O)NCCC(=O)NCc1ccc(F)cc1 | -103 | 23.1 µM [falling, single point] | 23.1 µM [falling, partial curve]
COc1ccc(OC)c(-n2c(C)cc(/C=C3\C(=N)N4N=C(CC(=O)N5CCOCC5)SC4=NC3=O)c2C)c1 | -11.3 | – | 0.82 µM [rising, single point]
O=C(CNc1cccc(S(=O)(=O)N2CCCCC2)c1)Nc1cccc(F)c1 | 122 | – | 29.1 µM [rising, single point]
Nc1cc(OC(=O)c2cccs2)nn1S(=O)(=O)c1ccc(F)cc1 | -7.66 | 0.103 µM [falling, full curve, poor fit] | –
Cc1nc2c(c(C)nn2-c2ccccc2)c(C)c1CCC(=O)Nc1ccc(CN2CCCC2)cc1 | – | 0.517 µM [rising, full curve] | 0.461 µM [rising, full curve, poor fit]
CSCCC(NC(=O)c1ccccc1Cl)C(=O)N1CCN(C(C)=O)CC1 (stereo not drawn) | -17.3 | 0.00461 µM [falling, full curve, poor fit] | –
CCc1ccc2oc(=O)cc(CN3CCCCC3C)c2c1 (stereo not drawn) | -40.4 | 23.1 µM [falling, single point] | 14.6 µM [falling, partial curve, poor fit]
COc1ccc(NC(=S)NCCc2ccccc2)c(OC)c1 | 40.2 | 1.3 µM [rising, partial curve] | –
Cc1ccc(OCCNC(=O)c2cccc(S(=O)(=O)NCc3ccccc3)c2)cc1 | -52.1 | 0.00461 µM [falling, full curve, poor fit] | 23.1 µM [falling, single point]
CCOC1=C/C(=C/c2c(N)n3nc(CC(=O)N4CCCCC4)sc3nc2=O)C=CC1=O | 1.79 | 3.66 µM [falling, partial curve] | –
COc1ccc(NC(=O)c2nc[nH]c2C(=O)NCc2ccccc2)cc1 | 41.3 | – | 25.9 µM [rising, single point]
COC(=O)COc1ccc(S(=O)(=O)NCc2cccnc2)cc1C | -3.73 | 1.03 µM [falling, full curve] | 0.82 µM [falling, full curve]
c1ccc(-c2nc3ccccc3s2)nc1 | -31.6 | 29.1 µM [falling, single point] | 18.4 µM [falling, single point]
O=C(NCc1ccncc1)/C(=C\c1ccc(F)cc1)NC(=O)c1ccccc1 | 2.9 | 23.1 µM [falling, single point] | –
Cc1ccc(S(=O)(=O)N2CCCC2CNC(=O)C(=O)NCCN2CCOCC2)cc1 (stereo not drawn) | -12.1 | 0.184 µM [falling, full curve, poor fit] | –
CCCC(NC(=O)CCc1c(C)c2cc3c4c(oc3c(C)c2oc1=O)CCCC4)C(=O)O (stereo not drawn) | 8.51 | 8.2 µM [rising, partial curve] | –
CC(C)(C)OC(=O)NCC(=O)Oc1cc2oc(=O)cc(-c3ccccc3)c2cc1Cl | 16.6 | 20.6 µM [rising, partial curve] | –

In the list so far, these have an NH in an aromatic ring:
SMILES | cell number change [%] | AC50 [1] | AC50 [2]
Cc1nn(CCC#N)c2[nH]c(=O)cc(C(F)(F)F)c12 | 25.8 | 2.91 µM [falling, partial curve] | 0.231 µM [falling, full curve, poor fit]
COc1ccc(NC(=O)c2nc[nH]c2C(=O)NCc2ccccc2)cc1 | 41.3 | – | 25.9 µM [rising, single point]

More compounds.

SMILES | cell number change [%] | AC50 [1] | AC50 [2]
CSc1ccc(S(=O)(=O)N2CCC(C(=O)Nc3cccnc3)CC2)cc1 | -17.1 | 0.1 µM [falling, full curve, poor fit] | –
O=S(=O)(c1cccc(NC(=S)N2CCN(c3ccccc3F)CC2)c1)C(F)F | 17.6 | 29.1 µM [rising, single point] | –
O=C(Oc1ccc2ccccc2c1)c1ccccc1 | -7.79 | 29.1 µM [falling, single point] | –
CCOC(=O)C1=C(Cc2ccc(Cl)cc2)C(=O)c2ccccc2C1=O | -96.4 | 4.61 µM [falling, single point] | –
COc1ccc([N+](=O)[O-])cc1NC(=O)C1C2C=CC(C2)C1C(=O)O (stereo not drawn) | -17.1 | – | –
O=C(Nc1ccc(-c2nc3ncccc3o2)cc1)c1ccc([N+](=O)[O-])o1 | -0.427 | 0.291 µM [falling, full curve] | –
Cc1ccc(NC(=O)Cc2nc(COC(=O)C(C)NS(=O)(=O)c3ccc(C)cc3)cs2)cc1 (stereo not drawn) | -1.38 | 0.00411 µM [rising, full curve, poor fit] | –
O=C(Cc1ccc(Br)cc1)Nc1ccccc1Cl | 8.33 | 29.1 µM [rising, single point] | –
CC(C)(C)NC(=O)NC(=O)COC(=O)COc1ccc2c(c1)CCC2 | -41.3 | 29.1 µM [falling, single point] | 3.66 µM [falling, single point]
COc1cc(CNc2ncn[nH]2)ccc1OCc1ccccc1C | 38.2 | – | 0.164 µM [rising, partial curve]
COc1cccc(C(=O)OCC(=O)NC(C)CCc2ccccc2)c1O (stereo not drawn) | 18.5 | 20.6 µM [falling, single point] | –
COc1ccc(-c2cnnc(N/N=C/c3c(C)nn(-c4ccccc4)c3Cl)n2)cc1 | -0.74 | – | –
Cc1cc(NC(=O)CCC(=O)N(Cc2ccccc2)C2(C(=O)NC3CCCCC3)CCCC2)no1 | 9.11 | 0.13 µM [falling, partial curve, poor fit] | –
CN(C(=O)c1nc(-c2ccccc2)n(-c2ccccc2)n1)C1CCS(=O)(=O)C1 (stereo not drawn) | -17.6 | – | –
CC(C)(C)c1ccc(-n2ncc3c2CCCC3NC(=O)c2csnn2)cc1 (stereo not drawn) | -45 | 0.146 µM [falling, full curve] | 0.146 µM [falling, full curve, poor fit]
CCN(CC)CCN(Cc1cc2ccc(C)cc2[nH]c1=O)C(=S)Nc1ccccc1C(=O)OC | -22.8 | 29.1 µM [falling, single point] | –
CCN(CC(=O)Nc1ccc(OC)cc1)C(=O)COc1cccc2c1OC(C)(C)C2 | – | 0.82 µM [falling, partial curve] | 2.91 µM [falling, partial curve]
Brc1ccc2nc(-c3ccncc3)c(NC3CCCC3)n2c1 | -0.36 | – | –
CC(C)CCNC(=O)C(c1ccncc1)N(C(=O)Cn1nnc(-c2ccc(F)cc2)n1)c1ccccc1F (stereo not drawn) | 75.6 | 20.6 µM [rising, single point] | 16.4 µM [rising, single point]
